# Library screening results

Data taken from ChEMBL document CHEMBL3988442, “University of Dundee, Small-Polar-MMV Screening Library” (2021).

Mtb heat-shock: 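Assay on Mycobacterium tuberculosis, filed only as a heat shock assay from Cornell; the read-out is not stated. The concentration is filed as 10 mM, unlikely as a test dose, so the dose is not known. The record gives no direction; compounds that gave an IC50 in retests scored well above the rest, so higher reads as stronger inhibition. Of about 69,000 compounds tested this way, about 930 (1.4%) reached 50% or more in at least one test.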
Mtb growth Cornell: 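Whole-cell assay for inhibitors of Mycobacterium tuberculosis growth, labelled Cornell in the record; the read-out is not stated. The concentration is filed as 10 mM, unlikely as a test dose, so the dose is not known. The record gives no direction; compounds strong in two other growth screens of this library score well above the rest, so higher reads as stronger inhibition. Size under these conditions: about 53,000 compounds, about 900 of them at 50% or above in at least one test.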

Results are given as percent effect.
The controls that fix the scale are not given in the record; negative values are as filed.
Compounds were drawn at random from those tested, without regard to their results.
A dash means the value is not listed here; it may have been measured.

compound | Mtb heat-shock | Mtb growth Cornell
O=C(O)c1ccc2ccc(N3CCN(CC4CC4)CC3)n2c1 | -14.8 | 6.066
CCn1cc(-c2nn3c(C(C)C)nnc3s2)c(C)n1 | -6.392 | 20.47
O=C(CCCc1cccs1)N1CCC(N2CCNC2=O)CC1 | -14.97 | -
Cc1nccn1[C@@H]1CC[C@@H](NC(=O)CCCn2cncn2)[C@H]1O | -17.93 | -35.43
CCS(=O)(=O)CCN(CC1CCCO1)C1CCCC1 (stereo not shown) | 9.371 | 34.86
CCCN1CCCC2(CCN(S(=O)(=O)N3CCC(OC)CC3)C2)C1=O (stereo not shown) | -28.63 | 1.381
CC(=O)N(Cc1ncc(C)o1)C1CCN(CCOc2ccccc2)C1 (stereo not shown) | -19.73 | -38.36
Cc1ccc2c(c1)C1(CC2)CCN(CC(=O)O)CC1.O=C(O)C(F)(F)F | -38.24 | -2.108
CC(=O)N1C[C@H](c2cc(O)nc(C)n2)[C@@H](c2ccccc2F)C1 | 5.016 | 22.4
[H][C@]12CC[C@@]3(N=C(C)N(CC(C)C)C3=O)[C@@]1([H])CN(S(C)(=O)=O)C2 | -0.6704 | 14.81
Cc1cccc(C(=O)N2CCCC2)c1NCC(=O)NC(C)(C#N)C1CC1 (stereo not shown) | -13.21 | -15.11
CN(C)S(=O)(=O)NCC(Cc1cccc(F)c1)N1CCNC1=O (stereo not shown) | -24.76 | 22.79
Cc1nc(C2CN(Cc3ccccc3C)CCO2)no1 (stereo not shown) | -8.067 | -
CCn1cc(S(=O)(=O)NC(CO)Cc2c[nH]c3ccccc23)cn1 (stereo not shown) | 16.31 | -1.971
Cc1ccncc1-n1cc(CCO)cn1 | 12 | -
CC(C)(C)C(=O)N[C@H]1C[C@@H](Cc2cc(CN3CCOCC3)on2)C1(C)C | -13.88 | 13.05
CCOc1ccc(NC(C)=O)cc1S(=O)(=O)Nc1cc(C)on1 | 12.35 | 24.51
COCCCNC(=O)CN(C)C(=O)c1cc2cc(C)ccc2nc1C | -13.31 | -
Cc1cnn(CC2CCCN2C(=O)CN(C)C2CC2)c1 (stereo not shown) | -11.22 | -
Cc1ccc([C@@H]2CN(S(=O)(=O)c3ccccc3)C[C@H]2N(C)C)cc1 | 16.69 | -
CC(=O)Nc1nc(C2CCN(C(C)C)CC2)cs1 | -13.17 | -15.97
COc1ccc(CN(C)C2CCN(C(=O)C(C)C)CC2)c2cccnc12 | 8.365 | 22.86
CC(C)[C@H]1COC(=O)N1CC(=O)N1CCN(C(=O)c2ccco2)CC1 | -15.56 | -0.393
COc1cccc(CN2CCC3(CCN(c4ncc(F)cn4)CC3)C2)c1.O=C(O)C(F)(F)F | -23.57 | 18.94
O=S(=O)(NCc1ccccc1)N1CCCN(c2ccncc2)CC1 | -9.809 | -1.731
Cc1ccc(C)c2c(O)cc(CN3CCC(=O)NCC3C)nc12 (stereo not shown) | -0.4656 | -0.6308
COc1cccc(-c2c[nH]c(C3CCCN3)n2)c1.Cl.Cl (stereo not shown) | -27.48 | 26.49
CCOCC1c2c(cnn2CC2CC2)CCN1Cc1nccs1.O=C(O)C(F)(F)F.O=C(O)C(F)(F)F (stereo not shown) | -8.287 | 22.08
CC(C)(C)c1noc(-c2nc3c([nH]2)CCCNC3=O)n1 | 6.289 | 2.599
COc1ccccc1CN1C[C@@H](F)[C@@H](OCc2nc3cnccc3[nH]2)C1 | -8.954 | -23.79
Cc1cc(C(=O)NCc2ccccn2)no1 | 36.04 | -0.2896
O=C1CN(C(=O)c2cccc(C(F)(F)F)c2)CC(O)CN1CC1CC1 (stereo not shown) | -17.19 | -8.523
CN(C(=O)Cn1nc(-c2ccccc2)ccc1=O)C1CCS(=O)(=O)C1 (stereo not shown) | 16.31 | -26.46
CC(=O)Nc1cnc(Oc2ccccc2F)nc1 | 12.87 | 11.48
CCC1(CNC(=O)NC(c2nnc3n2CCC3)C(C)C)CCC1 (stereo not shown) | -28.47 | -15.14
Cc1ccc(C(=O)N2CCC(c3nccn3Cc3ccncc3)CC2)s1 | -2.393 | 11.52
CC(C)(C)C(=O)NCCc1cc2nc(-c3ccncc3)ccn2n1 | 3.496 | 43.28
OCC1(Cc2ccccc2F)CCCN(c2ccc3ccccc3n2)C1 (stereo not shown) | -20.06 | -
CN(Cc1ccc(F)cc1)S(=O)(=O)N1CCOCC1 | 10.95 | -50.24
Cc1ccc(N2CCCC(N3CCC(CO)CC3)C2=O)cc1 (stereo not shown) | -13.84 | -28.05
Cc1ccc(=O)n(CC(=O)N2CCCC(c3nc(C)c(C)s3)C2)n1 (stereo not shown) | -5.738 | -
CCCc1noc(CCC(=O)N2CCCC2c2cccc(OC)c2)n1 (stereo not shown) | 0.5388 | -
CCOCC1CN(Cc2cnn(C)c2)Cc2ncn(CC3CC3)c21 (stereo not shown) | -9.873 | -12.46
O=C(NCC(O)c1ccoc1)Nc1cccs1 (stereo not shown) | -2.611 | 104.6
CCc1ccc(C(CNC(=O)c2c(C)noc2C)N(C)C)cc1 (stereo not shown) | -33.2 | -
Cc1noc(C)c1CNc1cc(N2CCCC2CO)ncn1 (stereo not shown) | -6.707 | -
c1ccc(CN2CCCC2Cn2cncn2)nc1 (stereo not shown) | 18.09 | 3.21
CN1CCN(Cc2nnc(C3CCN(C(CO)CO)CC3)n2C)CC1 | 6.744 | -19.71
c1coc(-c2noc(CN3CCCC3Cn3cncn3)n2)c1 (stereo not shown) | -3.517 | -
CC(C)C(NC(=O)NCCNc1ncccn1)c1cccs1 (stereo not shown) | -14.85 | -7.328
COCCCN1CC2(CCN(Cc3ncc[nH]3)CC2)CC1=O | 30.69 | -64.85

For reference, 6 entries once more:

| compound | Mtb heat-shock | Mtb growth Cornell |
|---|---|---|
| `CCOCC1CN(Cc2cnn(C)c2)Cc2ncn(CC3CC3)c21` (stereo not shown) | -9.873 | -12.46 |
| `CN1CCN(Cc2nnc(C3CCN(C(CO)CO)CC3)n2C)CC1` | 6.744 | -19.71 |
| `CC(C)[C@H]1COC(=O)N1CC(=O)N1CCN(C(=O)c2ccco2)CC1` | -15.56 | -0.393 |
| `COCCCN1CC2(CCN(Cc3ncc[nH]3)CC2)CC1=O` | 30.69 | -64.85 |
| `OCC1(Cc2ccccc2F)CCCN(c2ccc3ccccc3n2)C1` (stereo not shown) | -20.06 | - |
| `[H][C@]12CC[C@@]3(N=C(C)N(CC(C)C)C3=O)[C@@]1([H])CN(S(C)(=O)=O)C2` | -0.6704 | 14.81 |